# Earlier results, collected in patent US9326993B2, “Treatment of pulmonary and pleural fibrosis using HSP27 inhibitors” (ONCOGENEX TECHNOLOGIES INC., priority 2011, dated 2016).
# At least one compound was matched to its structure with a doubt left.
# System: HSP27
# Details: cited from earlier work
smiles,measurement,value
COC1=C2C[C@@H](C)C[C@H](OC)[C@H](O)[C@@H](C)/C=C(\C)[C@H](OC(N)=O)[C@@H](OC)/C=C\C=C(/C)C(=O)NC(=CC1=O)C2=O [geldanamycin],HSP27 expression/levels,increases HSP27 levels
